PubChem BioAssay AID720505 | Drosophila RNAi Screening Center, 2013
The screen tested about 20,000 reagents; shown is an unselected part of those with a known target gene and a result. Over the whole deposit, about 2,100 (10%) were called active. 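Raw plate signals without normalisation; calls rest on control-based scores that were not deposited; replicate 2 separates called from uncalled poorly.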 Reagent sequences are not shown. Not given: the amount of reagent, the time to read-out.

Purpose: 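Fly regulators or components of the CRAC channel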 (primary screen)
Cell system: Drosophila S2R+ cells
Reagents: long dsRNA against Drosophila genes
Treatment: thapsigargin (2 µM) in calcium-free buffer to empty internal stores, then 2 mM calcium added back
Measurement: 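Stores emptied by 2 µM thapsigargin without calcium, then 2 mM calcium re-added; fluo-4 fluorescence followed by FLIPR in 384-well plates, per-well averaged endpoint, raw; two screen passes, some wells retested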
Reading the numbers: calcium signal: higher = more calcium entry after store depletion
Hit rule: 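About 1500 genes called as lowering calcium entry, by varying amounts, judged against per-plate control wells with STIM1 as positive and Rho1 as negative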
Calls: active = called as lowering calcium entry; inactive = not called

Against Kal1 [DRSC15983], the entry reads calcium signal, replicate 1 = 152; calcium signal, replicate 2 = 153; inactive. After knock-down of metro [DRSC06341], the record shows calcium signal, replicate 1 = 121; calcium signal, replicate 2 = 150; inactive. metro [DRSC06725] scored calcium signal, replicate 1 = 80.6; calcium signal, replicate 2 = 141; inactive. For CG11374 [DRSC00306], the entry reads calcium signal, replicate 1 = 139; calcium signal, replicate 2 = 142; inactive. Knock-down of CG1486 [DRSC20508] gave: calcium signal, replicate 1 = 182; calcium signal, replicate 2 = 158; inactive. Depletion of Atg8b [DRSC14501] gave: calcium signal, replicate 1 = 51.5; calcium signal, replicate 2 = 127; active.

With knock-down of SiaT [DRSC04494] the results were calcium signal, replicate 1 = 117; calcium signal, replicate 2 = 194; inactive. Depletion of CG11672 [DRSC14344] resulted in: calcium signal, replicate 1 = 77.6; calcium signal, replicate 2 = 119; active. For Rab18 [DRSC18702], the values are calcium signal, replicate 1 = 65.3; calcium signal, replicate 2 = 82.6; active. tos [DRSC03624] scored calcium signal, replicate 1 = 78.9; calcium signal, replicate 2 = 116; inactive. After knock-down of CG8858 [DRSC07290], the screen gave calcium signal, replicate 1 = 85.9; calcium signal, replicate 2 = 141; inactive. Vha68-2 [DRSC02721] scored calcium signal, replicate 1 = 114; calcium signal, replicate 2 = 101; inactive.

2 entries from above, arranged by “calcium signal, replicate 2”, lowest first.
Vha68-2 [DRSC02721]: calcium signal, replicate 1 = 114; calcium signal, replicate 2 = 101; outcome = inactive
CG8858 [DRSC07290]: calcium signal, replicate 1 = 85.9; calcium signal, replicate 2 = 141; outcome = inactive
